Measured values: PMC12333249
These are yes or no findings as the source states them, for the method shown. Binding seen in cells or lysates may run through a third protein. Some entries that bind do so weakly or less than the wild type. For some assays here: Tags and fused reporters may be left off the sequences shown.

Amino acid sequences for entries named in this document (tags omitted). A change or cut given only in a name is not applied to a line headed by its entry. Residues count along the entry.
UniProt Q7KZF4: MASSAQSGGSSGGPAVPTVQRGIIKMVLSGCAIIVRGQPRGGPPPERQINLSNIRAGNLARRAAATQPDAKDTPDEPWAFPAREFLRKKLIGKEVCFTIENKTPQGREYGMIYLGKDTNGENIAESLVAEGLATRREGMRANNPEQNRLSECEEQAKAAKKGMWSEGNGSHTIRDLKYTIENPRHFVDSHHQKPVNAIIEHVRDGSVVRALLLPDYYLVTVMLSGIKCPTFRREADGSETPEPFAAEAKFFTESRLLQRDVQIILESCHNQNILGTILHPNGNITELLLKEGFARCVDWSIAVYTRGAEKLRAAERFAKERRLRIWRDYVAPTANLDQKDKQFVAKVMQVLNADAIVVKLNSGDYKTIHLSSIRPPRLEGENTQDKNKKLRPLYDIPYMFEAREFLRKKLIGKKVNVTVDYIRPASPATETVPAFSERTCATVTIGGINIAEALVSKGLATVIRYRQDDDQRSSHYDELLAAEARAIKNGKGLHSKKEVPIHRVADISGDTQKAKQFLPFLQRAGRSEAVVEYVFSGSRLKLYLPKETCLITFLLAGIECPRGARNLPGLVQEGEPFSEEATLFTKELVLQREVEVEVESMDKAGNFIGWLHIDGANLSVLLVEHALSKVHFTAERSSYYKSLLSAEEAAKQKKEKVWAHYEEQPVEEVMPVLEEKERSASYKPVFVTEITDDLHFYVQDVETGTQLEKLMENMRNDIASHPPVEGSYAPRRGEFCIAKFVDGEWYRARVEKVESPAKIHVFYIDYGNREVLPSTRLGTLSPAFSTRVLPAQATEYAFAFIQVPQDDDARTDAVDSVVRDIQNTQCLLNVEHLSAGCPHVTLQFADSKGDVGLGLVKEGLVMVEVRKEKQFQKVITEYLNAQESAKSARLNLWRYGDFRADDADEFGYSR
truncated SND1 (16–339): residues 16-339 of Q7KZF4

B1: truncated MTDH (364–582) carrying an HA tag (domain or fragment, UniProt Q86UE4 364-582)
chain: YQWDVSRNQPYIDDEWSGLNGLSSADPNSDWNAPAEEWGNWVDEERASLLKSQEPIPDDQKVSDDDKEKGEGALPTGKSKKKKKKKKKQGEDNSTAQDTEELEKEIREDLPVNTSKTRPKQEKAFSLKTISTSDPAEVLVKNSQPIKTLPPATSTEPSVILSKSDSDKSSSQVPPILQETDKSKSNTKQNSVPPSQTKSETSWESPKQIKKKKKARRET
B2: metadherin (MTDH) (protein, UniProt Q86UE4 1-582)
chain: MAARSWQDELAQQAEEGSARLREMLSVGLGFLRTELGLDLGLEPKRYPGWVILVGTGALGLLLLFLLGYGWAAACAGARKKRRSPPRKREEAAAVPAAAPDDLALLKNLRSEEQKKKNRKKLSEKPKPNGRTVEVAEGEAVRTPQSVTAKQPPEIDKKNEKSKKNKKKSKSDAKAVQNSSRHDGKEVDEGAWETKISHREKRQQRKRDKVLTDSGSLDSTIPGIENTITVTTEQLTTASFPVGSKKNKGDSHLNVQVSNFKSGKGDSTLQVSSGLNENLTVNGGGWNEKSVKLSSQISAGEEKWNSVSPASAGKRKTEPSAWSQDTGDANTNGKDWGRSWSDRSIFSGIGSTAEPVSQSTTSDYQWDVSRNQPYIDDEWSGLNGLSSADPNSDWNAPAEEWGNWVDEERASLLKSQEPIPDDQKVSDDDKEKGEGALPTGKSKKKKKKKKKQGEDNSTAQDTEELEKEIREDLPVNTSKTRPKQEKAFSLKTISTSDPAEVLVKNSQPIKTLPPATSTEPSVILSKSDSDKSSSQVPPILQETDKSKSNTKQNSVPPSQTKSETSWESPKQIKKKKKARRET

Legend:
[1] = target: truncated SND1 (16–339) (UniProt Q7KZF4); experiment: co-IP; plasmids of FLAG-tagged SND1 (full length, truncated 16–339, 340–910) and HA-tagged truncated MTDH (364–582); bait not given
[2] = target: Staphylococcal nuclease and Tudor domain containing 1 (SND1) (human (endogenous in PCa cell lines; DU-145 and PC-3 are the lines used)) (UniProt Q7KZF4); experiment: co-IP; endogenous proteins; beads with 2 µg SND1 or MTDH antibody, cell lysate supernatant, overnight at 4 ℃, three washes, Western blotting with 10% input

| Binder | binding [1] | binding [2] |
| --- | --- | --- |
| B1 | binds |  |
| B2 |  | binds |
